This is an account of results in publication PMC4351203.

Sequences of proteins named here, by UniProt entry; tags and fusion partners are left off.
UniProt Q62219: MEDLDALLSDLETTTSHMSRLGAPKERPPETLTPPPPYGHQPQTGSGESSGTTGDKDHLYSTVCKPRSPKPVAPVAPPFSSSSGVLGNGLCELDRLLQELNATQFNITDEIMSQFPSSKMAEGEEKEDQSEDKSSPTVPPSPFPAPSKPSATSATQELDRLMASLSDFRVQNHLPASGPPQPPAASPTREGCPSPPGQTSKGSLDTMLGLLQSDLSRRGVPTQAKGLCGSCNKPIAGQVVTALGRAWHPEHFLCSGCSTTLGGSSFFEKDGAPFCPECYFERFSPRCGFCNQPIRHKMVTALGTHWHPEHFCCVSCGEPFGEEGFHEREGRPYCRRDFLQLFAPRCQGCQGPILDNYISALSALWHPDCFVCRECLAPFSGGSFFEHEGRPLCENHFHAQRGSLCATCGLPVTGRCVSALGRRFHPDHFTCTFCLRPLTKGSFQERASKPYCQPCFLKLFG

Numbering of substitutions follows the chain as printed. Results are given in words; binding and its absence hold for the method and conditions named. In cells and extracts the contact can be indirect. A result given as binding can be weak or reduced; the word gives no strength. For some assays here: Sequences can lack the tags named with a protein.

Test in all cases: co-IP; extracts of HEK293T cells co-expressing FLAG-tagged Git1 proteins with a Myc-tagged partner or YFP-fused Git1; cells treated with 100 μM pervanadate or vehicle for 15 min; anti-FLAG beads; eluted by boiling in SDS sample buffer; Western blot with anti-Myc or anti-GFP
A general note: Immunoblotting shows a protein as a band on a membrane.

For assay [1], the target named is FLAG-tagged Git1-Y9F-Y554 (rat) (UniProt Q9Z272).
The target in assay [2] is T1, FLAG-tagged Git1 (WT) (rat) (UniProt Q9Z272).
T1 sequence: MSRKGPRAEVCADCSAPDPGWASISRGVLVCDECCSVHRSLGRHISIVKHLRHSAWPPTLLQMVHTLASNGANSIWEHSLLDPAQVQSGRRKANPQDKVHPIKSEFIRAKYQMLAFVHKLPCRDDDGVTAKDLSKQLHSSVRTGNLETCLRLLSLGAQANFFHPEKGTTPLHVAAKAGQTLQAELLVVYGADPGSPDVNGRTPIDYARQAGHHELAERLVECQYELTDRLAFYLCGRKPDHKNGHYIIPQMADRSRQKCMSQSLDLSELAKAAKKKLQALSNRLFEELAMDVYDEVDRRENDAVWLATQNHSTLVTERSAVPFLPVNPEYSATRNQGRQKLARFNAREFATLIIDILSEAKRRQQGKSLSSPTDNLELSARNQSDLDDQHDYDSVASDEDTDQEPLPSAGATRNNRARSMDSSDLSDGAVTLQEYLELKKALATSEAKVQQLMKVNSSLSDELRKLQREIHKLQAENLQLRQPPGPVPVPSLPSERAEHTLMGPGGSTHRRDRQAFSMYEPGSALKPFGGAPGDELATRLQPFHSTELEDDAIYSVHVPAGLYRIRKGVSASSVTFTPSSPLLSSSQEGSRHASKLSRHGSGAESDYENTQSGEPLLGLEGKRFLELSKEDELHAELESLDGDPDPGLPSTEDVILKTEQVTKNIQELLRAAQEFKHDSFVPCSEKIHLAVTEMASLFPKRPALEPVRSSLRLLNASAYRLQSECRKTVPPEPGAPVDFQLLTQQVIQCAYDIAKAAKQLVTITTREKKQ

The target in assay [3] is T2, FLAG-tagged Git1-Y554D (rat) (UniProt Q9Z272).
T2 sequence: T1 sequence with Y554D

For assay [4], the target named is T3, FLAG-tagged Git1-Y554F (rat) (UniProt Q9Z272).
T3 sequence: T1 sequence with Y554F

Consider “Myc-tagged Hic-5 (from UniProt Q62219 1-461)”, for which the binding entry in assay [1] is listed as “binds”.
Consider “Myc-tagged paxillin (from UniProt Q8VI36-2)”, for which the binding result in assay [2], in assay [3], in assay [4] and in assay [1] was “binds” in each case.
